Consider 34 compounds from PubChem BioAssay AID1487 (National Center for Advancing Translational Sciences (NCATS), 2009).

The structures appear in SMILES notation. Where “and” joins values, the source holds several entries; their conditions need not be identical. Equal values may be shown once. Some of the results follow. These are further read-outs of the screen, such as a control signal, another cell line or another target. No call is given for them. The list favours compounds with an active or inconclusive main result. Words in brackets tell the shape of the fitted curve; partial curves, single points and poor fits give uncertain potencies.

The assay is described as follows: qHTS Assay for Modulators of Lamin A Splicing. The note with it: HeLa LMNA splicing GFP/RFP minigene ratio, 48 h. The method, boiled down: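 S3 HeLa stable clones carrying a lamin A-EGFP splicing minigene plus DsRed2 were seeded at 600 cells/well in Opti-MEM with 2% FBS, pin-dosed and incubated 48 h at 37°C. Acumen cytometry (488 nm) gave the GFP/RFP total-intensity ratio.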
(In qHTS, concentration-response curves come from the screen itself.)

The mark [1] stands for this setting: measured here: GFP splicing reporter channel.
Where [2] appears, read: measured here: RFP viability control channel.

Consider `COCCNC(=O)C(c1ccco1)N(Cc1ccc(OC)cc1)C(=O)Cn1nnc2ccccc21` (stereo not drawn), for which the AC50 is, setting by setting: under setting [1], 0.00447 µM [falling, full curve, poor fit]; under setting [2], 0.00447 µM [falling, full curve, poor fit].

In the case of `CCCOc1cc(C)nc(-c2ccccc2O)n1`, under setting [2], the AC50 was 0.708 µM [falling, partial curve, poor fit].

Consider `O=C(Cn1nc(C(F)(F)F)c2c1CCCC2)Nc1ccc(Br)cc1`, for which the AC50 is, setting by setting: under setting [1], 5.62 µM [falling, partial curve]; under setting [2], 3.98 µM [falling, partial curve].

For `CCOC(=O)c1c(NC(=O)CSc2nnc(C)c(=O)[nH]2)sc2c1CCCC2`, the half-maximal activity concentration (AC50) under setting [2] was 0.178 µM [falling, full curve].

In the case of `COc1ccc(S(=O)(=O)Nc2ccc(-c3cn4c(C)csc4n3)cc2)cc1`, the AC50 under setting [1] was 0.562 µM [rising, full curve].

As to `CCOC(=O)N1CCN(CC(=O)Nc2ccc([N+](=O)[O-])cc2C(=O)Nc2ccccc2F)CC1`, the AC50 under setting [2] was 14.1 µM [rising, partial curve].

Consider `C=CCNC(=O)C1CC1(c1ccccc1)c1ccccc1` (stereo not drawn), for which, under setting [2], the AC50 is 0.316 µM [falling, full curve, poor fit].

With `Cc1cc(Oc2ccccc2)nc(SCC(=O)Nc2ccc(Cl)c(Cl)c2)n1`, the AC50 under setting [2] is 7.94 µM [rising, partial curve].

As for `CC1CCN(CC(C)CNC(=O)c2cc(-c3ccccn3)nc3ccccc23)CC1` (stereo not drawn), the AC50 is 20 µM [falling, single point] under setting [1] and 35.5 µM [falling, single point] under setting [2].

Regarding `CCC(=O)NCc1csc(-c2cccs2)n1`, the half-maximal activity concentration (AC50) under setting [2] was 7.08 µM [falling, partial curve, poor fit].

`COc1ccc(C(CNC(=O)c2ccc(N3CCCC3=O)cc2)N(C)C)cc1` (stereo not drawn): the AC50 under setting [2] is 14.1 µM [rising, single point].

Take `CC(=O)OCC(=O)[C@@]1(OC(C)=O)[C@@H](C)C[C@H]2[C@@H]3C[C@H](F)C4=CC(=O)C=C[C@]4(C)[C@@]3(F)[C@@H](O)C[C@@]21C`: the concentration at half-maximal activity (AC50) runs as follows: under setting [1], 4.47 µM [falling, single point]; under setting [2], 0.000891 µM [falling, full curve, poor fit].

In the case of `Nc1ccc2c(c1)COc1ccccc1O2`, the AC50 under setting [2] was 15.8 µM [rising, partial curve].

`COCCNC(C(=O)Nc1ccc([N+](=O)[O-])cc1Br)c1ccccc1` (stereo not drawn): the half-maximal activity concentration (AC50) under setting [1] is 17.8 µM [rising, single point].

On to `Cc1cc(C)cc(NC(=O)c2cc(CN3CCCC3)on2)c1`, for which the AC50 under setting [2] is 0.00501 µM [falling, full curve, poor fit].

Take `CNC(=O)CN1C(=O)NC(Cc2c[nH]c3ccccc23)C1=O` (stereo not drawn): the AC50 reads like this: under setting [1], 3.98 µM [rising, full curve, poor fit]; under setting [2], 3.98 µM [rising, full curve, poor fit].

In the case of `COc1cccc(C(=O)Nc2c3c(nn2-c2cccc(C)c2C)CS(=O)C3)c1OC` (stereo not drawn), the AC50 is 20 µM [rising, partial curve, poor fit] under setting [1] and 17.8 µM [rising, partial curve] under setting [2].

With `COCCCN1C(=O)c2[nH]nc(-c3ccccc3O)c2C1c1cccc(Cl)c1` (stereo not drawn), the AC50 under setting [2] is 2.82 µM [rising, full curve].

Take `S=C(NCC1CCCO1)NC1CCCC1` (stereo not drawn): the AC50 under setting [1] was 20 µM [falling, partial curve, poor fit].

Turning to `O=C(NCC(=O)N(Cc1ccccc1)C(C(=O)NC1CCCC1)c1ccncc1)c1ccco1` (stereo not drawn), the half-maximal activity concentration (AC50) under setting [2] is 11.2 µM [rising, single point].

On to `C/C(=N\NC(=O)NC1CCCCC1)C1CCCCC1`, for which the AC50 under setting [2] was 25.1 µM [falling, partial curve].

In the case of `O=[N+]([O-])c1cccc(/C=C/c2nc3ccc([N+](=O)[O-])cc3[nH]2)c1`, the AC50 by setting is: under setting [1], 20 µM [falling, single point]; under setting [2], 25.1 µM [falling, partial curve].

In the case of `C/C=C1/NN(CCCN2CCN(c3cccc(Cl)c3)CC2)C(=O)N1CCOc1ccccc1`, the half-maximal activity concentration (AC50) is, setting by setting: under setting [1], 22.4 µM [falling, single point]; under setting [2], 0.794 µM [falling, single point].

On to `CC(NC(=O)Cc1ccccc1)C(c1ccccc1)N1CCOCC1` (stereo not drawn), for which the AC50 was 5.01 µM [rising, full curve, poor fit] under setting [1] and 5.01 µM [rising, full curve, poor fit] under setting [2].

For `N=c1n(Cc2ccccc2)c2ccccc2n1CC(O)COc1ccc(Cl)cc1Cl` (stereo not drawn), the AC50 by setting is: under setting [1], 17.8 µM [falling, partial curve]; under setting [2], 11.2 µM [falling, partial curve].

Turning to `CC(N=C(NC#N)Nc1ccncc1)C(C)(C)C` (stereo not drawn), the AC50 by setting is: under setting [1], 12.6 nM [rising, full curve, poor fit] and 8.91 µM [rising, partial curve, poor fit]; under setting [2], 1.26 µM [rising, full curve, poor fit].

On to `COc1ccc(NC(=O)CSc2ccc3nc(-c4ccccc4)cn3n2)cc1OC`, for which, under setting [2], the AC50 is 35.5 µM [rising, partial curve, poor fit].

Turning to `C/C=C(/C)C(=O)O[C@@H]1[C@H](OC(C)=O)c2c(ccc3ccc(=O)oc23)OC1(C)C`, the AC50 under setting [1] was 0.316 µM [falling, partial curve, poor fit].

Consider `CCCCCCCNC(=O)c1ccc(N2CCC3(CC2)OCCO3)c([N+](=O)[O-])c1`, for which the AC50 under setting [1] is 31.6 µM [rising, single point] and the AC50 under setting [2] was 35.5 µM [rising, single point].

`CC1CCCC(NC(=O)COC(=O)COc2ccccc2Cl)C1C` (stereo not drawn): the AC50 was 7.08 µM [falling, partial curve, poor fit] under setting [1] and 0.1 µM [falling, full curve] under setting [2].

With `c1ccc(CCNc2ncnc3ccccc23)cc1`, under setting [2], the AC50 is 0.0316 µM [rising, full curve, poor fit].

With `COc1ccc2[nH]c(=O)c(CN(Cc3ccco3)C(=O)c3ccccc3)cc2c1`, under setting [1], the AC50 was 35.5 µM [rising, single point].

As to `COc1ccc(C)cc1NC(=O)C(NCC1CCCO1)c1ccccc1` (stereo not drawn), the AC50 under setting [1] was 0.891 µM [rising, partial curve, poor fit].

Consider `O=C(NC1=NCCS1)c1cc(-c2cccc(Br)c2)nc2ccccc12`, for which the AC50 reads like this: under setting [1], 22.4 µM [rising, single point]; under setting [2], 20 µM [rising, single point].

By AC50 is commonly meant the concentration giving half of the maximal activity seen.
